Test results reported in the supplement of paper PMC10338343.
± gives the standard deviation. The list shows a part of the results, in another mix than the full data. Many of these values have a large error.

How the values were obtained:
[1] = tested on: MILI (PIWIL2) piRISC loaded with piRNA #1 (26 nt); test: pre-steady-state target cleavage rate (min^-1); higher = faster piRNA-guided slicing of the target; conditions: guide: piRNA #1 5'p-UGAGGUAGUAGGUUGUAUAGUAUCCA; auxiliary factor: 500 nM mouse GTSF1
Method in brief: (§1)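 Reactions were run for 0–8 or 0–960 min at 33 °C in HEPES–potassium acetate buffer, combining 1 nM active affinity-purified piRISC with one synthetic guide, […] transcribed, DNA-blocked target RNA library and, in some cases, 500 nM GTSF1 partner protein. Sequencing of uncleaved targets followed, with normalisation to depth and to weakly complementary targets. Three trials were pooled, k3 was capped at 0.0001 min^-1, and the pre-steady-state cleavage rate was taken from a burst-and-steady-state fit.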

[2] = tested on: MIWI (PIWIL1) piRISC loaded with piRNA #1 (30 nt); test: as above; conditions: guide: piRNA #1 5'p-UGAGGUAGUAGGUUGUAUAGUAUCCAGAGG; auxiliary factor: 500 nM mouse GTSF1
Method in brief: as §1

[3] = tested on: EfPiwi piRISC loaded with piRNA #1 (26 nt); test: pre-steady-state target cleavage rate (min^-1); guide: piRNA #1 5'p-UGAGGUAGUAGGUUGUAUAGUAUCCA; MIWI and MILI are mouse PIWI proteins and EfPiwi is from a freshwater sponge; tags in brackets are library labels; higher = faster piRNA-guided slicing of the target; conditions: auxiliary factor: 500 nM Ephydatia muelleri Gtsf1
Method in brief: as §1

Row | Sequence | pre-steady-state target cleavage rate [1] | pre-steady-state target cleavage rate [2] | pre-steady-state target cleavage rate [3]
1 | GGAGACCUAUGAAUACAACCUUCUUCCUCA | 0.00127 ± 0.0044 | 0.000292 ± 0.0077 | 0.000303 ± 0.0098
2 | GGAGACCUAUGAAAACAACCUAGUACCUCA | 0.00164 ± 0.0043 | 0.000733 ± 0.0051 | 0.000844 ± 0.0067
3 | GGAGACCUUACUAUACAACCUACAUACCUCA | 0.157 ± 0.011 | – | 0.00229 ± 0.0053
4 | GGAGUGGAUACUAUACAUCGUACUACCUCA | 0.0624 ± 0.0061 | – | 0.0051 ± 0.0023
5 | GGAGACGUAACUAUACAACCUACUACCUCA | 0.166 ± 0.018 | – | 0.0248 ± 0.0098
6 | GGAGAGGAUUCUAUACAACCUACAACCUCA | 0.0904 ± 0.012 | – | 0.00103 ± 0.0022
7 | GGAGACCAUACUAUACAACGAACUACCUCA | 0.00198 ± 0.0035 | – | 0.00189 ± 0.0071
8 | GGAGACCAUACUAAACAUCCUACUACCUCA | 0.272 ± 0.022 | – | 0.00263 ± 0.0027
9 | GGAGACCUUACUAUACUACGUACUACCUCA | 0.0307 ± 0.0046 | – | 0.00111 ± 0.003
10 | GGAGACGAUACUAUACAACGUACUACGUCA | 0.00557 ± 0.0029 | – | 0.00379 ± 0.0014
11 | GGAGACCAUACUAUACAAGGUACUACCUCA | 0.0713 ± 0.0087 | – | 0.00335 ± 0.0029
12 | GGAGUGGAUAGUAUACAACCUUCUACCUCA | 0.0115 ± 0.0038 | – | 0.00338 ± 0.0021
13 | GGAGUGGAUACUAUACAACCUUCUACGUCA | 0.00135 ± 0.0039 | – | 0.00426 ± 0.0016
14 | GGAGACCUAAACUAUACAACCUACUACCUCA | 0.148 ± 0.018 | – | 0.00974 ± 0.0047
15 | GGAGACCAUAGUAUACAACCAACUACCUCA | 0.00718 ± 0.0021 | – | 0.00183 ± 0.0062
16 | GGAGACCUUACUAUAGAACCUACAACCUCA | 0.00259 ± 0.0028 | – | 0.000503 ± 0.006
17 | GGAGUGCUAACUAUACAACCUACUACCUCA | 0.128 ± 0.015 | – | 0.0117 ± 0.0053

Row | Sequence | pre-steady-state target cleavage rate [1] | pre-steady-state target cleavage rate [2] | pre-steady-state target cleavage rate [3]
18 | GGAGUGGAUACUAUUCAUCCUACUACCUCA | 0.265 ± 0.016 | – | 0.0078 ± 0.0036
19 | GGAGACCUUACUAAACAACCUAGUACCUCA | 0.0259 ± 0.0068 | – | 0.00247 ± 0.0038
20 | GGAGACCUAUGAUAUGUACCUACUCCCUCA | 0.000169 ± 0.018 | – | 0.000107 ± 0.022
21 | GGAGUGGAUACUAUACAACCUACUUACCUCA | 0.133 ± 0.011 | – | 0.00852 ± 0.0034
22 | GGAGACGAUACUUAACAACCUACUACCUCA | 0.134 ± 0.013 | – | 0.00683 ± 0.0038
23 | GGAGACCUAACUAUACAUCCUAGUACCUCA | 0.0577 ± 0.02 | – | 0.00456 ± 0.0048
24 | GGAGACCUAUGAUUACAACCUUGAUGGAGA [g10:g17:cont:t1A] | 0.000124 ± 0.02 | – | 0.00011 ± 0.028
25 | GGAGUGGAUAGUAUACUACCUACUACCUCA | 0.113 ± 0.0097 | – | 0.00287 ± 0.0021
26 | GGAGACCUUUACUAUACAACCUACUACCUCA | 0.154 ± 0.012 | – | 0.00394 ± 0.0042
27 | GGAGACCUUACUAUUCAACCUACUACCUGA | 0.0942 ± 0.014 | – | 0.00271 ± 0.0042
28 | GGAGACGAUACUAAACAACCUACUACCACA | 0.214 ± 0.019 | – | 0.0014 ± 0.0031
29 | GGAGACCUUACUAUACAAGCUACUACCUGA | 0.158 ± 0.021 | – | 0.00346 ± 0.003
30 | GGAGACCUAUGAUAUGUUGCUAUUACCUCA | 0.000123 ± 0.021 | – | 0.000842 ± 0.0073
31 | GGAGACCUAACUAUACAUGCUACUACCUCA | 0.0788 ± 0.013 | – | 0.00114 ± 0.0037
32 | GGAGACCUAACUAUACAACCAACUACCUGA | 0.00203 ± 0.0074 | – | 0.00262 ± 0.0038
33 | GGAGUGGAUACUAUACAACCUACUACGAGA | 0.0112 ± 0.004 | – | 0.00447 ± 0.0022
34 | GGAGACCUAUCUAUACAACCUACUACCUA | 0.0666 ± 0.0086 | – | 0.00487 ± 0.0042

Some of the entries so far, as comma-separated lines.
Row,Sequence,pre-steady-state target cleavage rate [1],pre-steady-state target cleavage rate [2],pre-steady-state target cleavage rate [3]
5,GGAGACGUAACUAUACAACCUACUACCUCA,0.166 ± 0.018,–,0.0248 ± 0.0098
9,GGAGACCUUACUAUACUACGUACUACCUCA,0.0307 ± 0.0046,–,0.00111 ± 0.003
10,GGAGACGAUACUAUACAACGUACUACGUCA,0.00557 ± 0.0029,–,0.00379 ± 0.0014
14,GGAGACCUAAACUAUACAACCUACUACCUCA,0.148 ± 0.018,–,0.00974 ± 0.0047
21,GGAGUGGAUACUAUACAACCUACUUACCUCA,0.133 ± 0.011,–,0.00852 ± 0.0034
25,GGAGUGGAUAGUAUACUACCUACUACCUCA,0.113 ± 0.0097,–,0.00287 ± 0.0021
30,GGAGACCUAUGAUAUGUUGCUAUUACCUCA,0.000123 ± 0.021,–,0.000842 ± 0.0073
32,GGAGACCUAACUAUACAACCAACUACCUGA,0.00203 ± 0.0074,–,0.00262 ± 0.0038
34,GGAGACCUAUCUAUACAACCUACUACCUA,0.0666 ± 0.0086,–,0.00487 ± 0.0042
